In assay [1] the target is T1, Drosophila Lin28, yeast two-hybrid fusion (Drosophila) (UniProt Q9VRN5).
T1 sequence: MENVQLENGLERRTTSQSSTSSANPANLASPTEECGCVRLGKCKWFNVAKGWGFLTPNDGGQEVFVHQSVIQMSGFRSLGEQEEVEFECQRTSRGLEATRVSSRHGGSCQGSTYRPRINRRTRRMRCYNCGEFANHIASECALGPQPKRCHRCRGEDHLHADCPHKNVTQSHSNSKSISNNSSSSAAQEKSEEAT
Kind of assay: two-hybrid; Gal4 TAD and LexA DBD fusions in yeast strain YPH500 with the lexAop-LacZ reporter pSH18-34; X-gal plates and beta-galactosidase liquid assay.

In assay [2] the target is T2, HA-tagged Lin28 (Drosophila) (UniProt Q9VRN5).
T2 sequence: T1 sequence
Kind of assay: co-IP; S2 cells co-transfected with HA-Lin28 and FLAG-Imp, lysed in RIPA buffer without SDS; precipitation with anti-Flag or anti-HA antibody and Protein A/G beads, western blot with Lin28 or Imp antibody; also after RNase treatment of the lysate (100 ug/ml, 30 minutes). A general note: A western blot detects proteins with antibodies after separation by electrophoresis.

For assay [3], the target named is Drosophila IGF2 mRNA binding protein (Imp), yeast two-hybrid fusion (Drosophila). Kind of assay: two-hybrid; Gal4 TAD and LexA DBD fusions in yeast strain YPH500 with the lexAop-LacZ reporter pSH18-34; X-gal plates and beta-galactosidase liquid assay.
In assay [4] the target is Flag-tagged Imp (Drosophila). Kind of assay: co-IP; S2 cells co-transfected with HA-Lin28 and FLAG-Imp, lysed in RIPA buffer without SDS; precipitation with anti-Flag or anti-HA antibody and Protein A/G beads, western blot with Lin28 or Imp antibody; also after RNase treatment of the lysate (100 ug/ml, 30 minutes).

Results are given in words; binding and its absence hold for the method and conditions named. Binding calls can cover weak binding; strength is not graded here. Where a sequence is shown, tags or fusion partners need not be part of it. For some of these results: Binding seen in cells or lysates may run through a third protein.

With “Drosophila IGF2 mRNA binding protein (Imp), yeast two-hybrid fusion”, the binding result in assay [1] is listed as “binds”.

Regarding Flag-tagged Imp (Drosophila), the binding entry in assay [2] is recorded as “binds”.

B1: Drosophila Lin28, yeast two-hybrid fusion (protein, UniProt Q9VRN5 1-195)
chain: T1 sequence
As to B1, the binding result in assay [3] is “binds”.

B2: HA-tagged Lin28 (protein, UniProt Q9VRN5 1-195)
chain: T1 sequence
As for B2, the binding result in assay [4] is recorded as “binds”.

The record behind these values is article PMC9484684.
